Data taken from PubChem BioAssay AID2685 (National Center for Advancing Translational Sciences (NCATS), 2010).
The list shows a part of the results. Further columns of the screen follow, without active or inactive calls. Compounds called inactive in the main read-out are mostly missing here. Words in brackets tell the shape of the fitted curve; partial curves, single points and poor fits give uncertain potencies.

Assay: qHTS Assay for Lipid Storage Modulators in Drosophila S3 Cells;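 on cell number change: cells counted by Cell Tracker Red CMTPX staining in the red channel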
Conditions: BODIPY lipid droplet fluorescence, 18-24 h; for cell number change: measured here: cell count max response, cells fed with added oleic acid
Method in brief: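 Laser-scanning cytometry quantifies lipid droplet accumulation (500–530 nm total intensity; droplet/cell object ratio) in oleic acid-fed (400 uM added) Drosophila S3 cells treated with a concentration series. 20 uM Triacsin C defined 100% inhibition.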

[1] = measured here: cell number channel AC50, cells fed with added oleic acid
[2] = measured here: lipid fluorescence (Fed channel) AC50, cells fed with added oleic acid

Structure (SMILES) | cell number change [%] | AC50 [1] | AC50 [2]
COc1ccc(OC)c(-c2csc(NC(=O)Cc3ccc(OC)c(OC)c3)n2)c1 | 27.3 |  | 
CCn1cc(Br)c(C(=O)N2CCN(c3ccccc3)CC2)n1 | -44.8 | 6.51 µM [falling, full curve, poor fit] | 0.731 µM [falling, single point]
CCN(CC)S(=O)(=O)c1ccc(C(=O)NCCc2ccccn2)cc1 | 16.3 | 3.26 µM [rising, single point] | 2.31 µM [rising, partial curve]
O=S(=O)(c1ccccc1)c1nc(-c2ccccc2Cl)oc1NCCN1CCOCC1 | 82.6 | 6.51 µM [falling, single point] | 29.1 µM [rising, single point]
Cc1ccc(C)c(N2CCN(S(=O)(=O)c3c(C(=O)N4CCCCC4)c(C)n(C)c3C)CC2)c1 | -11.2 | 5.17 µM [falling, partial curve, poor fit] | 
COc1cccc(N2CCN(c3ncnc4c3[nH]c3ccc(F)cc34)CC2C)c1 (stereo unspecified) | -30.3 | 10.3 µM [falling, single point] | 13 µM [falling, partial curve]
Cc1cccnc1NC(=O)C(C)Oc1ccccc1 (stereo unspecified) | 142 | 0.366 µM [rising, full curve] | 23.1 µM [rising, partial curve]
COc1cc(/C=C2\CC(C(C)(C)C)C/C(=C\c3cc(OC)c(OC)c(OC)c3)C2=O)cc(OC)c1OC (stereo unspecified) | -26.9 |  | 32.6 µM [falling, single point]
CC(=O)NCCC(=O)Nc1cc(S(=O)(=O)N2CCOCC2)ccc1Oc1ccc(F)cc1 | 26.9 |  | 
O=c1c2c(nc3n1CCCCC3)sc1c(O)c(Br)ccc12 | 2.38 | 0.0517 µM [falling, full curve] | 1.64 µM [falling, partial curve]
O=C(CCCn1c(=O)[nH]c2ccsc2c1=O)NC1CCCCC1 | 27.9 |  | 
COc1ccc(/C=N\NC(=O)COc2ccccc2Cl)cc1Cn1nc(C)cc1C | -46.6 | 25.9 µM [falling, partial curve, poor fit] | 29.1 µM [falling, single point]
CC(C)c1ccc(S(=O)(=O)N2CCN(C(C)C(=O)N3CCCC3)CC2)cc1 (stereo unspecified) | 1.32 | 0.58 µM [falling, single point] | 0.731 µM [falling, single point]
CCOc1ccc(C2C(C#N)=C(N)Oc3nc[nH]c(=O)c32)cc1OC (stereo unspecified) | 2.94 | 0.82 µM [falling, partial curve, poor fit] | 6.51 µM [falling, single point]
CCOC(=O)c1c(C=O)c2ccccc2n1CC | -24.1 |  | 9.2 µM [falling, partial curve]
O=C(NCC1CCCO1)c1sc2cc(Cl)ccc2c1Cl (stereo unspecified) | -20.7 |  | 
Nc1ccc(N=Nc2ccc(N)cc2)cc1 | 152 | 18.4 µM [rising, partial curve] | 0.103 µM [rising, full curve, poor fit]
COc1cc2c(cc1OC)CN(C(=O)c1ccc(S(=O)(=O)N3CCCCC3)cc1)CC2 | 9.35 |  | 20.6 µM [rising, single point]
COc1ccccc1C(=O)Nc1ccc(C(=O)/C=C/c2cccs2)cc1 | 5.71 | 2.91 µM [rising, partial curve] | 

Structure (SMILES) | cell number change [%] | AC50 [1] | AC50 [2]
COc1cc(/C=N/OCC(=O)NC23CC4CC(CC(C4)C2)C3)ccc1OCc1ccccc1 | -11.8 |  | 11.6 µM [falling, partial curve, poor fit]
Cc1ccc(NC(=O)C2CCCN(c3ncnc4c3nc3n4CCCCC3)C2)cc1Cl (stereo unspecified) | -10.4 |  | 0.58 µM [rising, single point]
Cc1cc(C(=O)NN=C(Cc2ccccc2)Cc2ccccc2)c(C)o1 | 21.7 |  | 4.11 µM [rising, partial curve, poor fit]
Cc1ccc(NC(=O)COC(=O)COc2cccc3c2OC(C)(C)C3)cc1C | -6.08 |  | 29.1 µM [rising, single point]
O=C(CN1C(=O)COc2ccccc21)NCCN1CCC(Cc2ccccc2)CC1 | -76.8 | 32.6 µM [falling, partial curve] | 29.1 µM [falling, partial curve]
O=C(Nc1ccc(N2CCOCC2)cc1N1CCOCC1)c1ccc(Br)cc1 | -50.4 | 1.64 µM [falling, full curve, poor fit] | 1.64 µM [falling, full curve]
CC(C)CCNC(=O)C1(c2cccs2)CCOCC1 | -29 | 2.59 µM [falling, single point] | 6.51 µM [falling, partial curve, poor fit]
Cc1cccc(/C=N/NC(=O)c2ccc(NC(=O)c3ccc(F)cc3)cc2)n1 | -9.52 |  | 
CCOC(=O)c1c(C)nn(Cc2cccc(Cl)c2)c1N | 40.6 | 9.2 µM [rising, partial curve, poor fit] | 0.0058 µM [rising, full curve, poor fit]
O=c1oc(Cc2ccccc2)nc2ccccc12 | -20.8 | 0.116 µM [falling, full curve, poor fit] | 6.51 µM [rising, partial curve, poor fit]
Cc1nonc1OCCCNc1ccc([N+](=O)[O-])cc1Cl | -17.7 |  | 0.058 µM [falling, full curve, poor fit]
Cc1ccc(C(C(=O)NC(C)(C)C)N(Cc2cccs2)C(=O)c2ccc3c(c2)OCCO3)cc1 (stereo unspecified) | 13.1 |  | 0.58 µM [falling, single point]
Cc1cccc(C(=O)OC2CCN(C)CC2)c1 | 17.5 |  | 0.259 µM [falling, full curve]
CC1=CCC2C(=O)N(c3nc(C)cc(C)n3)C(=O)C2C1 (stereo unspecified) | -185 | 29.1 µM [falling, single point] | 
COCCNC(=O)C(c1ccc(OC)cc1)N(Cc1ccco1)C(=O)CCC(=O)Nc1ccccn1 (stereo unspecified) | -1.9 |  | 0.206 µM [rising, single point]
CC(C)N1CCN(S(=O)(=O)c2ccccc2)CC1 | 22 |  | 0.0517 µM [rising, full curve, poor fit]
CCOC(=O)c1c(Cc2ccccc2)c[nH]c1C | 13 |  | 
CN(CCO)S(=O)(=O)c1ccc2c(c1)C(=NO)c1cc(S(=O)(=O)N(C)CCO)ccc1-2 | 5.33 |  | 0.146 µM [falling, full curve, poor fit]
O=C(CSc1ccc(F)cc1)NC(=O)NCc1ccccc1 | -32.5 |  | 7.31 µM [rising, partial curve, poor fit]

Structure (SMILES) | cell number change [%] | AC50 [1] | AC50 [2]
CCOc1ccc(CCNC(=O)c2cc(S(=O)(=O)N3CCOCC3)ccc2C)cc1OCC | 19.9 |  | 29.1 µM [rising, single point]
Cc1ccccc1C(=O)N/N=C/c1ccc(Sc2ccccn2)o1 | -8.65 | 4.11 µM [falling, partial curve, poor fit] | 13 µM [falling, partial curve]
CCN(CC)S(=O)(=O)c1cccc(-c2nc3n(n2)Cc2ccccc2-3)c1 | -25.4 |  | 6.51 µM [falling, single point]
O=C(NNC(=S)Nc1ccccc1C(F)(F)F)c1ccc(Br)o1 | 13.4 |  | 20.6 µM [rising, single point]
Cc1ccccc1N(CC(=O)NCCSC1CCCCC1)S(=O)(=O)c1ccccc1 | 3.35 |  | 0.0517 µM [falling, full curve, poor fit]
O=C(Nc1ccc(C(=O)N2CCOCC2)cc1)c1ccc([N+](=O)[O-])cc1 | 12.5 |  | 1.16 µM [falling, single point]
CCCCCOC(=O)C1[C@H]2C(=O)N(CCCOC)C[C@]23C=C[C@H]1O3 (stereo partly specified) | -1.75 |  | 6.51 µM [rising, single point]
CC(NC(=O)C1CCN(S(=O)(=O)c2ccc3nc4c(c(C(=O)O)c3c2)CCCC4)CC1)c1ccccc1 (stereo unspecified) | -5.9 |  | 1.64 µM [rising, partial curve]
Cc1c(C(=O)Nc2ccc(Cl)cc2)c2ccccn2c1C(=O)c1ccc(F)cc1 | -2.08 |  | 0.517 µM [rising, single point]
Cc1cccc2cc(C#N)c(N3CCC(O)CC3)nc12 | 16.2 | 6.51 µM [rising, single point] | 
Cc1ccc(NC(=O)COC(=O)C2(c3ccc(Cl)cc3)CCCC2)cc1 | -20.9 |  | 2.91 µM [falling, partial curve]
Cc1cccc(NC(=S)NNc2cccc(Cl)c2)c1 | -13.3 |  | 29.1 µM [falling, partial curve, poor fit]
COc1ccccc1C(=O)NC(CCSC)C(=O)N1CCN(C(C)=O)CC1 (stereo unspecified) | 1.56 |  | 
O=C(CN1CCCCCC1)Nc1ccccc1F | -16.2 |  | 
Cc1ccc(NC(=O)CN2CCc3cc4c(cc3C2)OCCCO4)cc1C | -32.2 | 0.0058 µM [falling, full curve, poor fit] | 
O=C1C=CN(C(=O)Oc2ccccc2)CC1 | -1.23 |  | 0.731 µM [rising, full curve]
CCOC(=O)c1ccc(NC(=O)Cn2nnc(-c3ccccc3C)n2)cc1 | -4.94 |  | 
CC(C)(CO)NCc1cc(Br)ccc1OCc1ccccc1 | -11.3 |  | 29.1 µM [falling, single point]
CC1CCCCN1C(=O)c1c(Cl)cnn1C (stereo unspecified) | -16.1 |  | 0.58 µM [rising, single point]

As a working copy, four of the compounds above.
Structure (SMILES) | cell number change [%] | AC50 [1] | AC50 [2]
O=C(Nc1ccc(C(=O)N2CCOCC2)cc1)c1ccc([N+](=O)[O-])cc1 | 12.5 |  | 1.16 µM [falling, single point]
CCCCCOC(=O)C1[C@H]2C(=O)N(CCCOC)C[C@]23C=C[C@H]1O3 (stereo partly specified) | -1.75 |  | 6.51 µM [rising, single point]
CC(NC(=O)C1CCN(S(=O)(=O)c2ccc3nc4c(c(C(=O)O)c3c2)CCCC4)CC1)c1ccccc1 (stereo unspecified) | -5.9 |  | 1.64 µM [rising, partial curve]
Cc1c(C(=O)Nc2ccc(Cl)cc2)c2ccccn2c1C(=O)c1ccc(F)cc1 | -2.08 |  | 0.517 µM [rising, single point]
